# Source: PubChem BioAssay AID2685 (National Center for Advancing Translational Sciences (NCATS), 2010)
# This is one part of the list. Further columns of the screen follow, without active or inactive calls. Compounds called inactive in the main read-out are mostly missing here. Words in brackets tell the shape of the fitted curve; partial curves, single points and poor fits give uncertain potencies.
# Assay: qHTS Assay for Lipid Storage Modulators in Drosophila S3 Cells;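 on cell number change: cells counted by Cell Tracker Red CMTPX staining in the red channel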
# Conditions: BODIPY lipid droplet fluorescence, 18-24 h; for cell number change: measured here: cell count max response, cells fed with added oleic acid
# In short: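 Drosophila S3 cells loaded with oleic acid (400 uM, as added) and compounds at several concentrations; lipid droplets imaged by 488-nm laser-scanning cytometry, 500–530 nm intensity and object ratio to cell channel. Percent activity normalized to 20 uM Triacsin C.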
# [1] = measured here: cell number channel AC50, cells fed with added oleic acid
# [2] = measured here: lipid fluorescence (Fed channel) AC50, cells fed with added oleic acid
SMILES,cell number change [%],AC50 [1],AC50 [2]
COc1ccc(C2SCCN2C(=S)Nc2cccc(Cl)c2)cc1 (configuration not stated),-4.15,"0.731 µM [falling, single point]","11.6 µM [rising, partial curve, poor fit]"
C[C@@H]1C[C@@H]2O[C@H]2/C=C\C=C\C(=O)Cc2c(Cl)c(O)cc(O)c2C(=O)O1,-23.5,,"3.26 µM [falling, full curve]"
C=CCN(CC(=O)NC1CCS(=O)(=O)C1)S(=O)(=O)c1ccccc1C(F)(F)F (configuration not stated),-4.74,"0.146 µM [falling, full curve, poor fit]",
COC(=O)C(NC(=O)c1c(C)nn(C)c1Cl)c1ccccc1 (configuration not stated),0.519,,"3.66 µM [falling, partial curve, poor fit]"
Clc1ccccc1OCCn1nnc2ccccc21,11,,"23.1 µM [rising, single point]"
CCN(CC)S(=O)(=O)c1ccc(NC(=O)COC(=O)c2cnc(C)cn2)cc1,-23.8,"4.11 µM [falling, full curve, poor fit]","3.66 µM [falling, full curve]"
COCCCNC(=S)NNC(=O)c1cc(C2CC2)nc2ccccc12,-39.6,"16.4 µM [falling, partial curve, poor fit]","29.1 µM [rising, single point]"
COC(=O)c1[nH]c2cccc(OC)c2c1NC(=O)CCN1CC(C)CC(C)C1 (configuration not stated),-13.9,,"23.1 µM [falling, partial curve]"
CCN1C(=O)/C(=C\C(=O)c2cccs2)c2cc(Br)ccc21,38.3,,"6.51 µM [rising, single point]"
CCOc1ncccc1C(=O)OCC(=O)Nc1ccc2c(c1)OCO2,3.55,"2.06 µM [rising, single point]",
c1ccc(Oc2ncnc3sccc23)cc1,-10.7,,
FC(F)(F)c1nc(N2CCCC2)ncc1-c1nnnn1-c1ccc(Cl)cc1,-39.1,"23.1 µM [falling, single point]","4.11 µM [rising, single point]"
CCN(CC)S(=O)(=O)c1ccc(C(=O)Nc2cccc(C)c2)cc1,36.1,,"13 µM [rising, partial curve]"
Cc1csc2ncc(C(=O)N3c4ccccc4CC3C)c(=O)n12 (configuration not stated),,,"0.731 µM [falling, full curve, poor fit]"
COc1ccc(C2=NN(CC(=O)Nc3ccccc3C)C(=O)CC2)cc1,,"0.0651 µM [rising, full curve, poor fit]","0.164 µM [rising, full curve, poor fit]"
Cc1ccc(CN(CC(O)COc2cccc3[nH]cc(C)c23)C(C)(C)C)cc1 (configuration not stated),-16.7,,
CCCCn1c(=O)[nH]c(=O)c2c1nc(-c1ccc(-c3ccccc3Br)o1)n2CCOC,22.5,,"2.31 µM [rising, partial curve, poor fit]"
Cc1cc(=O)oc2cc(OCC(=O)NCc3ccncc3)ccc12,16.2,,
Cc1nn2c(N)c(-c3ccccc3)cnc2c1-c1ccccc1,-10.1,,"0.116 µM [rising, full curve, poor fit]"

SMILES,cell number change [%],AC50 [1],AC50 [2]
COc1ccc(CCN(C)C2CCCN(C(=O)Cn3cnnn3)C2)cc1OC (configuration not stated),,"4.11 µM [falling, partial curve, poor fit]",
CC(Sc1nnc(-c2ccc(OC(F)F)cc2)n1N)C(=O)NCC1CCCO1 (configuration not stated),4.27,,"29.1 µM [rising, single point]"
CCSC1=NC(C)(C)C=C(/C=C/c2ccc(Cl)cc2Cl)N1,-5.75,,"29.1 µM [falling, single point]"
COc1ccc(S(=O)(=O)n2ccc(-c3cnc(-c4ccccc4)s3)n2)cc1,71,"13 µM [rising, partial curve]",
Cc1cccc(OCC(=O)N/N=C/c2cc([N+](=O)[O-])ccc2N2CCOCC2)c1,-52.1,"1.03 µM [falling, partial curve]","29.1 µM [falling, single point]"
Cc1cc(NCc2ccccc2)n2ncc(-c3ccccc3)c2n1,98.6,"29.1 µM [rising, single point]","29.1 µM [falling, single point]"
Cc1ccccc1N1C(S)=C(C#N)C(=O)NC1c1cccs1 (configuration not stated),0.246,,"20.6 µM [falling, single point]"
Cc1nc(C)c(-c2ccc(SCC(=O)Nc3ccc(F)cc3F)nn2)s1,-0.0255,,
O=C(c1ccco1)N1CCN(C(=S)Nc2ccc(F)cc2)CC1,20.8,"0.116 µM [rising, full curve, poor fit]","6.51 µM [falling, single point]"
COCCCNC(=S)N(CCCN(C)C)Cc1cc2cc3c(cc2[nH]c1=O)OCCO3,-11,,"6.51 µM [falling, single point]"
CCCNC(=O)CN1C(=O)c2ccccc2Sc2ncccc21,16.9,"4.11 µM [rising, single point]",
c1ccc(-c2oc3ncnc(N4CCOCC4)c3c2-c2ccccc2)cc1,160,"3.66 µM [rising, full curve]","7.31 µM [rising, partial curve]"
CC(C)(C)OC(=O)NCc1ccc(NC(=O)c2nc[nH]c2C(=O)N[C@@H](Cc2ccccc2)C(=O)OC(C)(C)C)cc1,-28.8,,
CCOC(=O)N1CCN(C(=O)c2cc(-c3ccc(F)cc3)[nH]c2C)CC1,,,"0.517 µM [falling, full curve, poor fit]"
Cc1ccc2nsnc2c1NC(=O)c1sc2ccccc2c1Cl,3.81,,"2.06 µM [rising, single point]"
O=C(c1nc2nc(-c3ccc(Cl)cc3)cc(C(F)(F)F)n2n1)N1CCOCC1,0.317,"4.11 µM [rising, single point]",
Cc1ccc(C)c(S(=O)(=O)N2CCCOC2CNC(=O)C(=O)NCCc2ccccc2)c1 (configuration not stated),15,,"6.51 µM [rising, partial curve, poor fit]"
Cc1ccc(/C=C(/NC(=O)c2ccccc2)C(=O)NCCc2c[nH]c3ccccc23)o1,85.6,,
COc1ccccc1Nc1c2ccccc2nc2ccccc12,-94,"23.1 µM [falling, partial curve]","20.6 µM [falling, partial curve]"

# Full records, looked up by structure:
# `O=C(c1ccco1)N1CCN(C(=S)Nc2ccc(F)cc2)CC1` as listed: cell number change [%]: 20.8; AC50 [1]: 0.116 µM [rising, full curve, poor fit]; AC50 [2]: 6.51 µM [falling, single point]
# `O=C(c1nc2nc(-c3ccc(Cl)cc3)cc(C(F)(F)F)n2n1)N1CCOCC1` as listed: cell number change [%]: 0.317; AC50 [1]: 4.11 µM [rising, single point]
# `CC(Sc1nnc(-c2ccc(OC(F)F)cc2)n1N)C(=O)NCC1CCCO1` (configuration not stated) as listed: cell number change [%]: 4.27; AC50 [2]: 29.1 µM [rising, single point]
# `COc1ccc(CCN(C)C2CCCN(C(=O)Cn3cnnn3)C2)cc1OC` (configuration not stated) as listed: AC50 [1]: 4.11 µM [falling, partial curve, poor fit]

# (cont.)

SMILES,cell number change [%],AC50 [1],AC50 [2]
Cc1nn(CC(=O)NCCCN2CCCCC2)c(=O)c2cccn12,31,"7.31 µM [rising, partial curve, poor fit]",
O=[N+]([O-])c1ccc(-c2nc3ccc([N+](=O)[O-])cc3[nH]2)cc1,-14.7,,"4.11 µM [falling, single point]"
O=C(O)C(c1ccccc1)N1C(=O)/C(=C\c2ccc(O)c(O)c2)SC1=S (configuration not stated),-155,,"14.6 µM [falling, partial curve]"
O=C(Nc1nc2cc3c(cc2s1)OCCO3)c1ccc(N2C(=O)CCC2=O)cc1,-0.241,,"29.1 µM [rising, single point]"
CSc1cccc(NC(=O)CCn2c(=O)c3cccn3c3cccnc32)c1,-15.8,,"29.1 µM [falling, single point]"
CC12CN(C(=S)Nc3ccccc3)CC(C)(CN(C(=S)Nc3ccccc3)C1)C2=O,-39.6,"25.9 µM [falling, partial curve, poor fit]","29.1 µM [falling, single point]"
CCc1c(C)nc(N)n2c(SCC(=O)Nc3ccccc3)nnc12,-22.2,,
COC(=O)CCC(=O)NNC(=O)CCC(=O)Nc1cccc(Cl)c1C,17.5,"6.51 µM [rising, partial curve, poor fit]",
CCCCC(=O)NCCc1ccc(OC)cc1,33.3,,"0.731 µM [falling, full curve]"
O=C(NCc1ccc(Cl)cc1)c1cc(=O)[nH]c2ccc(S(=O)(=O)N3CCOCC3)cc12,-40.2,"32.6 µM [falling, single point]","29.1 µM [falling, single point]"
CCOc1cc(/C=N\NC(=O)c2ccc(C)nc2)cc([N+](=O)[O-])c1O,4.9,,"0.92 µM [falling, full curve]"
CS(=O)(=O)N(CC(O)Cn1c2ccccc2c2ccccc21)c1cccc2ccccc12 (configuration not stated),-16,,"6.51 µM [rising, single point]"
O=C(O)c1ccc(Cl)c(NCc2cccnc2)c1,3.81,,"1.16 µM [rising, full curve]"
O=C(Nc1ccc(S(=O)(=O)N2C[C@@H]3C[C@@H](C2)c2cccc(=O)n2C3)cc1)c1ccc(F)cc1,19.5,,"0.092 µM [falling, full curve, poor fit]"
CC(C)(C)C(CCl)C(=O)NN=C(c1ccccc1)c1ccccc1 (configuration not stated),11.2,,"29.1 µM [rising, single point]"
CCC(CC)NC(=O)c1cc2c(C)nn(Cc3ccccc3Cl)c2s1,-28.9,,"2.06 µM [rising, partial curve]"
Cc1ccc(C)c(-c2csc(Nc3ncccn3)n2)c1,-30.4,"1.84 µM [falling, full curve]","0.206 µM [falling, full curve]"
CC(=O)c1cccc(NC(=O)c2ccc(NC(=O)CCS(=O)(=O)c3cccs3)cc2)c1,54.3,"23.1 µM [rising, single point]",
Cc1ccc(C)c(S(=O)(=O)N2CCN(C(=O)c3ccccn3)CC2)c1,16.6,"2.06 µM [rising, single point]","1.84 µM [rising, full curve]"
